Results are given in words; binding and its absence hold for the method and conditions named.
Molecular target: MeV-V_(CT221-299) (measles virus V protein, residues 221-299, containing the C-terminal domain) (measles virus (strain Ichinose-B95a)) (UniProt P0C774)
Experiment: SEC; last purification step of MeV-V_(CT221-299); mass from the standard curve 5.6 kDa (theoretical 9.2 kDa); both purified

B1: MeV-V_(CT221-299) (measles virus V protein, residues 221-299, containing the C-terminal domain) (domain or fragment)
chain: GPASTSETPIKKGHRREIGLIWNGDRVFIDRWCNPMCSKVTLGTIRARCTCGECPRVCEQCRTDTGVDTRIWYHNLPEIPE
notes: additional Gly and Pro before Ala221, left after HRV-3C protease digestion; 15N- or 13C,15N-labelled for the NMR experiments, unlabelled for ITC; Monomer by SEC; also called MeV-VCT construct; MeV-VCTD; source: E. coli BL21 star (DE3), purified (Glutathione Sepharose 4B, 3C protease elution, HisTrap, HIC, SEC); not shown: GST, N-terminal, cleaved
- binding: no binding

Source: article PMC12548473, “Solution structure of the C-terminal domain of the measles virus V protein in its free form and mechanistic analysis of STAT2 targeting” (Journal of Virology, 2025)
